PubChem BioAssay AID1159584 | Peter MacCallum Cancer Centre – 2016
The whole screen tested about 18,000 reagents; shown is a random part of them. Not given: the amount of reagent, the time to read-out.

Assay: 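Genes that CDH1-null MCF10A cells selectively depend on to survive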 (primary screen)
Cells: human MCF10A breast epithelial cells, parental and CDH1-null
Reagents: siRNA against human genes
Read-out: 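Cell viability by CellTiter-Glo ATP luminescence, each line scaled to the mean of mock wells across plates, then CDH1-null over parental ratio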
Reading the numbers: CDH1-null / parental viability ratio: higher = CDH1-null cells survive relatively better than parental; CDH1-null viability vs mock: higher = more viable CDH1-null cells; parental viability vs mock: higher = more viable parental cells

| gene | CDH1-null / parental viability ratio | CDH1-null viability vs mock (fraction of mock) | parental viability vs mock (fraction of mock) |
| --- | --- | --- | --- |
| MPV17L | 0.8 | 0.35 | 0.44 |
| GSDMA | 0.98 | 0.9 | 0.92 |
| ZNF260 | 0.95 | 0.8 | 0.84 |
| CSPG4 | 1.02 | 1.03 | 1.01 |
| TMSB4XP8 | 0.99 | 1.02 | 1.03 |
| KCTD9 | 0.87 | 0.68 | 0.78 |
| DPT | 0.86 | 0.57 | 0.66 |
| AKR1B10 | 1.05 | 0.78 | 0.74 |
| GNG4 | 0.9 | 0.76 | 0.84 |
| URGCP | 1.12 | 0.86 | 0.77 |
| EVA1C | 1.13 | 1.02 | 0.9 |
| GALNT1 | 1.07 | 0.9 | 0.84 |
| GPR137 | 0.92 | 0.74 | 0.8 |
| OR8K1 | 1.06 | 0.87 | 0.82 |
| TMEM130 | 0.97 | 0.76 | 0.78 |
| HMGB4 | 1.06 | 0.56 | 0.53 |
| PHB2 | 1.12 | 0.72 | 0.64 |
| CKAP2 | 1.02 | 0.82 | 0.8 |
| PDGFRB | 1 | 0.8 | 0.8 |
| TRAF3 | 0.62 | 0.2 | 0.32 |
| TIGD7 | 0.97 | 0.95 | 0.98 |
| UQCC3 | 0.92 | 0.73 | 0.79 |
| PRAMEF10 | 1.09 | 1.09 | 1 |
| POM121L12 | 1.23 | 0.74 | 0.6 |
| CIDEB | 0.82 | 0.6 | 0.73 |
| ADSS2 | 1.17 | 0.82 | 0.7 |
| H3-5 | 0.95 | 0.94 | 0.99 |
| NT5C1A | 1.56 | 0.81 | 0.52 |
| PRSS22 | 1.12 | 0.72 | 0.64 |
| DCUN1D5 | 1.22 | 1.1 | 0.9 |
| KCNJ4 | 1.76 | 0.72 | 0.41 |
| SDAD1 | 1.15 | 0.6 | 0.52 |
| PHKG2 | 0.85 | 0.86 | 1.01 |
| OLFML1 | 1.1 | 1 | 0.91 |
| OR51B5 | 1.15 | 0.76 | 0.66 |
| TAS1R3 | 1.06 | 0.68 | 0.64 |
| FOXD4L6 | 0.87 | 0.8 | 0.92 |
| PM20D1 | 0.84 | 0.54 | 0.64 |
| THYN1 | 1.08 | 0.53 | 0.49 |
| ARHGEF25 | 1.1 | 1.02 | 0.93 |
| SLC5A9 | 1 | 0.8 | 0.8 |
| DTX2 | 0.65 | 0.26 | 0.4 |
| POPDC2 | 1.02 | 0.54 | 0.53 |
| OSBPL7 | 1.16 | 1 | 0.86 |
| RNF122 | 0.94 | 0.94 | 1 |
| DRC1 | 0.76 | 0.62 | 0.82 |
| CCDC25 | 1.44 | 1.02 | 0.71 |
| C19orf53 | 0.83 | 0.76 | 0.92 |
| CIBAR2 | 0.8 | 0.82 | 1.02 |
| TADA2A | 1.02 | 1 | 0.98 |
| SIGMAR1 | 0.69 | 0.75 | 1.08 |
| ZNHIT2 | 1.07 | 0.64 | 0.6 |
| KRT2 | 1.02 | 0.49 | 0.48 |
| NSMCE2 | 1.11 | 0.82 | 0.74 |
| ESRP1 | 1 | 0.9 | 0.9 |
| SPDYA | 0.98 | 0.65 | 0.66 |
| TUBGCP6 | 0.93 | 0.91 | 0.98 |
| HYAL3 | 1.29 | 1.19 | 0.92 |
| H3C4 | 1.37 | 0.7 | 0.51 |
| OR6K3 | 0.9 | 0.81 | 0.9 |
| VPS13A | 1.01 | 0.75 | 0.74 |
| STRN4 | 0.86 | 0.65 | 0.76 |
| ZMIZ1 | 0.96 | 0.75 | 0.78 |
| BBS4 | 0.96 | 0.92 | 0.96 |
| GET4 | 1.07 | 0.6 | 0.56 |
| ENTPD3 | 0.62 | 0.5 | 0.8 |
| AVP | 1.08 | 0.4 | 0.37 |
| PGD | 1.16 | 0.8 | 0.69 |

Sorted by “parental viability vs mock (fraction of mock)” (lowest first): some entries from above
| gene | CDH1-null / parental viability ratio | CDH1-null viability vs mock (fraction of mock) | parental viability vs mock (fraction of mock) |
| --- | --- | --- | --- |
| CCDC25 | 1.44 | 1.02 | 0.71 |
| C19orf53 | 0.83 | 0.76 | 0.92 |
| TADA2A | 1.02 | 1 | 0.98 |
| CIBAR2 | 0.8 | 0.82 | 1.02 |
